The source of these data is patent US20240010720A1.

The target in this assay is A-006 (IgG1 format). Kind of assay: competition flow cytometry: assay supernatants with A-006-like ABP (20 ug/ml) and titrated soluble IGSF11-ECD-His stained on fresh MDA-MB-231-luc/IGSF11 cells; blocked: ABP binding to IGSF11 on the cells.

No constants are given. Whether binding was seen depends on the method and setting. Some binding calls cover weakened binding; strength is not graded here. Where a sequence is shown, tags or fusion partners need not be part of it.

B1: His-tagged extracellular domain (ECD) of human IGSF11 (VSIG3) (receptor, not shown: small tags and cut ends)
chain: LEVSESPGSIQVARGQPAVLPCTFTTSAALINLNVIWMVTPLSNANQPEQVILYQGGQMFDGAPRFHGRVGFTGTMPATNVSIFINNTQLSDTGTYQCLVNNLPDIGGRNIGVTGLTVLVPPSAPHCQIQGSQDIGSDVILLCSSEEGIPRPTYLWEKLDNTLKLPPTATQDQVQGTVTIRNISALSSGLYQCVASNAIGTSTCLLDLQVISPQPRNIG
As for B1, the binding result was “binds”.
